{
  "sequences": {"note": "By UniProt entry, the sequences of proteins in these tests, tags left out.", "UniProt Q96EB6": "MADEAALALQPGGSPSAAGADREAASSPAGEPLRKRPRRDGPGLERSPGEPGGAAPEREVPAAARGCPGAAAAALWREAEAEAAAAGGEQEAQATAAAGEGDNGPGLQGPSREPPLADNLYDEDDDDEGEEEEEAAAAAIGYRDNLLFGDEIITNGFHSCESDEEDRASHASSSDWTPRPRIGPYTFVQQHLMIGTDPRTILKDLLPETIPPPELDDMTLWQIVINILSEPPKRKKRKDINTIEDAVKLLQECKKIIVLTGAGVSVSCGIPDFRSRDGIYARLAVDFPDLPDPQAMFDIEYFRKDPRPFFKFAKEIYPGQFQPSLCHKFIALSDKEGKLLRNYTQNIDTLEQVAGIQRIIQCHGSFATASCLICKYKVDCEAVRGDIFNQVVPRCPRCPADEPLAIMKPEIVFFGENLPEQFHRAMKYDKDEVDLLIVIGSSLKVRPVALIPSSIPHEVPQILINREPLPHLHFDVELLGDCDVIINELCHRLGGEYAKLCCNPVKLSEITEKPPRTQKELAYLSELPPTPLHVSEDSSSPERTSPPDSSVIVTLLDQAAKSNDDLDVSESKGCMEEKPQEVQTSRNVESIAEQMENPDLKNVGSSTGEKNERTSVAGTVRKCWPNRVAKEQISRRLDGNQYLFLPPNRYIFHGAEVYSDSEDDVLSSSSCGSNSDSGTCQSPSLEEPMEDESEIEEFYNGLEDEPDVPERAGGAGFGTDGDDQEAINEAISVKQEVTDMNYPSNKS", "UniProt P20226": "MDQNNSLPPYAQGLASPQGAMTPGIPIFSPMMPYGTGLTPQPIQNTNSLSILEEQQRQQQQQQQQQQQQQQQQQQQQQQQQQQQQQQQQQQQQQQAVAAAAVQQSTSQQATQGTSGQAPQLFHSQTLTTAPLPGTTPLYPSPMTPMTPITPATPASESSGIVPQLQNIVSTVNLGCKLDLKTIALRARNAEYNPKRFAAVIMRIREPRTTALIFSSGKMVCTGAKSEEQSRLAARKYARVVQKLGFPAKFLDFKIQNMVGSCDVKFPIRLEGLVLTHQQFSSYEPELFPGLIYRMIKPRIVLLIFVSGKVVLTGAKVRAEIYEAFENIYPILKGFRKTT"},
  "source": "paper PMC4449194",
  "molecules": {"B1": {"name": "35S-labeled hTAFI110 (protein, UniProt Q15572-1 1-869)", "chain": "MDFPSSLRPALFLTGPLGLSDVPDLSFMCSWRDALTLPEAQPQNSENGALHVTKDLLWEPATPGPLPMLPPLIDPWDPGLTARDLLFRGGCRYRKRPRVVLDVTEQISRFLLDHGDVAFAPLGKLMLENFKLEGAGSRTKKKTVVSVKKLLQDLGGHQPWGCPWAYLSNRQRRFSILGGPILGTSVASHLAELLHEELVLRWEQLLLDEACTGGALAWVPGRTPQFGQLVYPAGGAQDRLHFQEVVLTPGDNPQFLGKPGRIQLQGPVRQVVTCTVQGESKALIYTFLPHWLTCYLTPGPFHPSSALLAVRSDYHCAVWKFGKQWQPTLLQAMQVEKGATGISLSPHLPGELAICSRSGAVCLWSPEDGLRQIYRDPETLVFRDSSSWRWADFTAHPRVLTVGDRTGVKMLDTQGPPGCGLLLFRLGAEASCQKGERVLLTQYLGHSSPKCLPPTLHLVCTQFSLYLVDERLPLVPMLKWNHGLPSPLLLARLLPPPRPSCVQPLLLGGQGGQLQLLHLAGEGASVPRLAGPPQSLPSRIDSLPAFPLLEPKIQWRLQERLKAPTIGLAAVVPPLPSAPTPGLVLFQLSAAGDVFYQQLRPQVDSSLRRDAGPPGDTQPDCHAPTASWTSQDTAGCSQWLKALLKVPLAPPVWTAPTFTHRQMLGSTELRREEEEGQRLGVLRKAMARGQLLLQRDLGSLPAAEPPPAPESGLEDKLSERLGEAWAGRGAAWWERQQGRTSEPGRQTRRPKRRTQLSSSFSLSGHVDPSEDTSSPHSPEWPPADALPLPPTTPPSQELTPDACAQGVPSEQRQMLRDYMAKLPPQRDTPGCATTPPHSQASSVRATRSQQHTPVLSSSQPLRKKPRMGF", "modifications": "^35S-labeled"}, "B2": {"name": "Flag-hTAFI68 (HEK293T) (protein, UniProt Q53T94 1-588)", "chain": "MDLEEAEEFKERCTQCAAVSWGLTDEGKYYCTSCHNVTERYQEVTNTDLIPNTQIKALNRGLKKKNNTEKGWDWYVCEGFQYILYQQAEALKNLGVGPELKNDVLHNFWKRYLQKSKQAYCKNPVYTTGRKPTVLEDNLSHSDWASEPELLSDVSCPPFLESGAESQSDIHTRKPFPVSKASQSETSVCSGSLDGVEYSQRKEKGIVKMTMPQTLAFCYLSLLWQREAITLSDLLRFVEEDHIPYINAFQHFPEQMKLYGRDRGIFGIESWPDYEDIYKKTVEVGTFLDLPRFPDITEDCYLHPNILCMKYLMEVNLPDEMHSLTCHVVKMTGMGEVDFLTFDPIAKMAKTVKYDVQAVAIIVVVLKLLFLLDDSFEWSLSNLAEKHNEKNKKDKPWFDFRKWYQIMKKAFDEKKQKWEEARAKYLWKSEKPLYYSFVDKPVAYKKREMVVNLQKQFSTLVESTATAGKKSPSSFQFNWTEEDTDRTCFHGHSLQGVLKEKGQSLLTKNSLYWLSTQKFCRCYCTHVTTYEESNYSLSYQFILNLFSFLLRIKTSLLHEEVSLVEKKLFEKKYSVKRKKSRSKKVRRH"}, "B3": {"name": "GFP-hCdc14B (enzyme, UniProt O60729 1-498)", "chain": "MKRKSERRSSWAAAPPCSRRCSSTSPGVKKIRSSTQQDPRRRDPQDDVYLDITDRLCFAILYSRPKSASNVHYFSIDNELEYENFYADFGPLNLAMVYRYCCKINKKLKSITMLRKKIVHFTGSDQRKQANAAFLVGCYMVIYLGRTPEEAYRILIFGETSYIPFRDAAYGSCNFYITLLDCFHAVKKAMQYGFLNFNSFNLDEYEHYEKAENGDLNWIIPDRFIAFCGPHSRARLESGYHQHSPETYIQYFKNHNVTTIIRLNKRMYDAKRFTDAGFDHHDLFFADGSTPTDAIVKEFLDICENAEGAIAVHCKAGLGRTGTLIACYIMKHYRMTAAETIAWVRICRPGSVIGPQQQFLVMKQTNLWLEGDYFRQKLKGQENGQHRAAFSKLLSGVDDISINGVENQDQQEPEPYSDDDEINGVTQGDRLRALKSRRQSKTNAIPLTVILQSSVQSCKTSEPNISGSAGITKRTTRSASRKSSVKSLSISRTKTVLR"}, "B4": {"name": "endogenous hTAFI68 (protein, UniProt Q53T94 1-588)", "chain": "B2 chain"}, "B5": {"name": "35S-labeled hTAFI68 (protein, UniProt Q53T94 1-588)", "chain": "B2 chain", "modifications": "^35S-labeled"}},
  "key": {"[1]": {"molecular_target": "T1, Flag-hTAFI110/T852A (stable HeLa line) (human) (UniProt Q15572)", "T1 sequence": "B1 chain with T852A", "experiment": "co-IP; Flag-hTAFI110 (WT or T852A) immunoprecipitated from stable HeLa lines, nuclear lysate, 250 mM KCl; blots with anti-TAFI68 and anti-TBP"}, "[2]": {"molecular_target": "T2, Flag-hTAFI110/WT (stable HeLa line) (human) (UniProt Q15572)", "T2 sequence": "B1 chain", "experiment": "co-IP; Flag-hTAFI110 (WT or T852A) immunoprecipitated from stable HeLa lines, nuclear lysate, 250 mM KCl; blots with anti-TAFI68 and anti-TBP"}, "GST-SIRT1 [3]": {"molecular_target": "GST-SIRT1 (UniProt Q96EB6)", "experiment": "pull-down; 2 ug GST-tagged protein immobilised on Glutathione-Sepharose 4B, incubated with in vitro synthesized 35S-labeled proteins for 4 h at 4°C in 120 mM KCl, 20 mM Tris-HCl pH 7.9, 5 mM MgCl2, 0.2 mM EDTA, 10% glycerol, 0.2% NP-40; SDS-PAGE and PhosphorImaging; only the target purified"}, "GST-SIRT1 [4]": {"molecular_target": "GST-SIRT1 (UniProt Q96EB6)", "experiment": "pull-down; 2 ug GST-tagged protein immobilised on Glutathione-Sepharose 4B, incubated with in vitro synthesized 35S-labeled proteins for 4 h at 4°C in 120 mM KCl, 20 mM Tris-HCl pH 7.9, 5 mM MgCl2, 0.2 mM EDTA, 10% glycerol, 0.2% NP-40; SDS-PAGE and PhosphorImaging; only the target purified", "remark": "listed apart in the source"}, "GST-hCdc14B (human)": {"molecular_target": "T3, GST-hCdc14B (human) (UniProt O60729)", "T3 sequence": "B3 chain", "experiment": "pull-down; 2 ug GST-tagged protein immobilised on Glutathione-Sepharose 4B, incubated with in vitro synthesized 35S-labeled proteins for 4 h at 4°C in 120 mM KCl, 20 mM Tris-HCl pH 7.9, 5 mM MgCl2, 0.2 mM EDTA, 10% glycerol, 0.2% NP-40; SDS-PAGE and PhosphorImaging; only the target purified"}, "GFP-SIRT1": {"molecular_target": "GFP-SIRT1 (UniProt Q96EB6)", "experiment": "co-IP; Flag-hTAFI68 co-expressed with GFP-tagged Sirtuins in HEK293T; lysis in 300 mM KCl, 20 mM Tris-HCl pH 7.9, 5 mM MgCl2, 0.2 mM EDTA, 0.5% Triton X-100; capture on GFP-Trap beads 4 h at 4°C; blot with anti-TAFI68"}, "[5]": {"molecular_target": "T4, Flag-hTAFI110 (HEK293T) (human) (UniProt Q15572)", "T4 sequence": "B1 chain", "experiment": "co-IP; Flag-hTAFI110 and GFP-hCdc14B co-expressed in HEK293T (nocodazole 80 ng/ml 23 h, released 30 min); bound to M2-agarose, 120 mM KCl, 0.5% Triton X-100; blot with anti-GFP"}},
  "note": "Numbering of substitutions follows the chain as printed. Read-outs that look alike come from different tables or passages of the source. These are yes or no findings as the source states them, for the method shown. In cells and extracts the contact can be indirect. Some entries that bind do so weakly or less than the wild type. For some of these results: Sequences can lack the tags named with a protein.",
  "data": [
    {"molecule": "endogenous TBP (from UniProt P20226 1-339)", "values": [
      {"measurement": "binding", "setting": "[1]", "value": "binds"},
      {"measurement": "binding", "setting": "[2]", "value": "binds"}
    ]},
    {"molecule": "35S-labeled hTBP (from UniProt P20226 1-339)", "values": [
      {"measurement": "binding", "setting": "GST-SIRT1 [3]", "value": "binds"}
    ]},
    {"molecule": "B1", "values": [
      {"measurement": "binding", "setting": "GST-SIRT1 [4]", "value": "binds"},
      {"measurement": "binding", "setting": "GST-hCdc14B (human)", "value": "binds"}
    ]},
    {"molecule": "B2", "values": [
      {"measurement": "binding", "setting": "GFP-SIRT1", "value": "binds"}
    ]},
    {"molecule": "B3", "values": [
      {"measurement": "binding", "setting": "[5]", "value": "binds"}
    ]},
    {"molecule": "B4", "values": [
      {"measurement": "binding", "setting": "[1]", "value": "binds"},
      {"measurement": "binding", "setting": "[2]", "value": "binds"}
    ]},
    {"molecule": "B5", "values": [
      {"measurement": "binding", "setting": "GST-SIRT1 [4]", "value": "binds"}
    ]}
  ]
}
